Reference: paper PMC10854834
Results are given in words; binding and its absence hold for the method and conditions named. In cells and extracts the contact can be indirect. Some results given as binding are weak or reduced against the parent protein; the word gives no strength. Sequences can lack the tags named with a protein.

How the values were obtained:
[1] = molecular target: T1, CCR6*GFP (human CC-chemokine receptor 6 fused to GFP) (human) (UniProt P51684); test: condition: only after 10 min of incubation (500 ng/mL CCL18); co-IP; as a1, but cells loaded with 500 ng/mL recombinant human CCL18 for 10 min only; only the binder purified
T1 sequence: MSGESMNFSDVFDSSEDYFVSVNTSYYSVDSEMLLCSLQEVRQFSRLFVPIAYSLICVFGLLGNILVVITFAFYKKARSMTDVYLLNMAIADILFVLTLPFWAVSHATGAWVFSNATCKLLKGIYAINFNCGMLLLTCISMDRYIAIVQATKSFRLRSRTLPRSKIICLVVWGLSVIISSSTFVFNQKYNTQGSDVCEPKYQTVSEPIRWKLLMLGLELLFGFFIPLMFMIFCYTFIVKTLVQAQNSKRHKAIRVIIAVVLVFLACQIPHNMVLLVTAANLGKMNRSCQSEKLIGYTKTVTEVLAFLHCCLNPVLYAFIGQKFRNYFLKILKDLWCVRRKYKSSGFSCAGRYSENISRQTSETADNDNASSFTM

[2] = molecular target: T1, CCR6*GFP (human CC-chemokine receptor 6 fused to GFP) (human); test: co-IP; RLE-6TN CCR6*GFP cells loaded with 500 ng/mL recombinant human CCL18 for 30 min, gently lysed, CCR6*GFP isolated with the isolation kit for GFP-tagged proteins (anti-GFP beads, Miltenyi), western blot with anti-CCR6 and anti-CCL18; only the binder purified

- binding [1]: no binding
- binding [2]: binds
B1: recombinant human CCL18 (CC-chemokine 18) (ligand, UniProt P55774 21-89)
chain: AQVGTNKELCCLVYTSWQIPQKFIVDYSETSPQCPKPGVILLTKRGRQICADPNKKWVQKYISDLKLNA
